In the supplement of paper PMC10849652:
This is one part of the list.

By UniProt entry, the sequences of proteins in these tests, tags left out. Where a name states a change or a piece, a line headed by the entry shows the natural chain unless it says otherwise.
UniProt Q9UBX3: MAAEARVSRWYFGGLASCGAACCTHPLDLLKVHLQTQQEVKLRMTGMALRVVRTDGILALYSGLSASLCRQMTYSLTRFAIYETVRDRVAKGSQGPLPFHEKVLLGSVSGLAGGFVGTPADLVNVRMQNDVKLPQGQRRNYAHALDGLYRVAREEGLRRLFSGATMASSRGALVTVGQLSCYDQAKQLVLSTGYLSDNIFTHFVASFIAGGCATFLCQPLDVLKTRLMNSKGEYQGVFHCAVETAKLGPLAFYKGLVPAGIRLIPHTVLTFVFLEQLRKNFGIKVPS
UniProt Q9Y289: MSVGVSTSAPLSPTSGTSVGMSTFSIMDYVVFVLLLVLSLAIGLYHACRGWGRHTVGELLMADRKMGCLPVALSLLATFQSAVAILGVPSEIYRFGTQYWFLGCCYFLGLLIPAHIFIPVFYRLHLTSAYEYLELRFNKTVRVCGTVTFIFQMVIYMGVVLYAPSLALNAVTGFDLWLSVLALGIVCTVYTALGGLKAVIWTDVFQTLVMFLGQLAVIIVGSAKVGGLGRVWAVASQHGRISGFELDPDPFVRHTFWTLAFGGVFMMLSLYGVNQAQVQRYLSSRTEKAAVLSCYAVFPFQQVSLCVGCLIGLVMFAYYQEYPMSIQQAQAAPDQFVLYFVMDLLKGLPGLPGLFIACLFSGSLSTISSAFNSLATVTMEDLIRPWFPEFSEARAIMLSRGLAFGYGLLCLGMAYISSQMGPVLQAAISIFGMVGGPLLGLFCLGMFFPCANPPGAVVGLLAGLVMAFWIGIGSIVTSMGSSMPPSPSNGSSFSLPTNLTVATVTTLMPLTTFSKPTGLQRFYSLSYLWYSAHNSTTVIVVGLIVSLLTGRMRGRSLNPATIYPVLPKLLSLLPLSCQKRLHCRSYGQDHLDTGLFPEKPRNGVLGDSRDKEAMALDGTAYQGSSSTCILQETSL
UniProt O14975, whole entry, looked up: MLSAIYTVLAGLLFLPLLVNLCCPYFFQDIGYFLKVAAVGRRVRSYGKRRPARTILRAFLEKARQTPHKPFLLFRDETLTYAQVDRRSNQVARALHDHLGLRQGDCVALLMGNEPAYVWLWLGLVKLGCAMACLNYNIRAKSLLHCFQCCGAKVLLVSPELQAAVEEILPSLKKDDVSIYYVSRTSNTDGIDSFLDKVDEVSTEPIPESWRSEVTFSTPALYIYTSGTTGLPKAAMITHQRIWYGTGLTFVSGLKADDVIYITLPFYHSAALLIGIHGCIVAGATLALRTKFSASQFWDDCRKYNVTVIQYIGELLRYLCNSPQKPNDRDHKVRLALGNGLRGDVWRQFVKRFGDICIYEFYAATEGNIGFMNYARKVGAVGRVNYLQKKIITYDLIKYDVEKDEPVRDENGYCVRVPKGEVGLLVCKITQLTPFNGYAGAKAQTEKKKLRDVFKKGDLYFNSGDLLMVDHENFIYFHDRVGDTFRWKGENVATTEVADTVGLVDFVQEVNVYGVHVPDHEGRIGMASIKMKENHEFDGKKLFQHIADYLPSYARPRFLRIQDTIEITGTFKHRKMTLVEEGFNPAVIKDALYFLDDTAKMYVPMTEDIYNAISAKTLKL
UniProt Q6PML9: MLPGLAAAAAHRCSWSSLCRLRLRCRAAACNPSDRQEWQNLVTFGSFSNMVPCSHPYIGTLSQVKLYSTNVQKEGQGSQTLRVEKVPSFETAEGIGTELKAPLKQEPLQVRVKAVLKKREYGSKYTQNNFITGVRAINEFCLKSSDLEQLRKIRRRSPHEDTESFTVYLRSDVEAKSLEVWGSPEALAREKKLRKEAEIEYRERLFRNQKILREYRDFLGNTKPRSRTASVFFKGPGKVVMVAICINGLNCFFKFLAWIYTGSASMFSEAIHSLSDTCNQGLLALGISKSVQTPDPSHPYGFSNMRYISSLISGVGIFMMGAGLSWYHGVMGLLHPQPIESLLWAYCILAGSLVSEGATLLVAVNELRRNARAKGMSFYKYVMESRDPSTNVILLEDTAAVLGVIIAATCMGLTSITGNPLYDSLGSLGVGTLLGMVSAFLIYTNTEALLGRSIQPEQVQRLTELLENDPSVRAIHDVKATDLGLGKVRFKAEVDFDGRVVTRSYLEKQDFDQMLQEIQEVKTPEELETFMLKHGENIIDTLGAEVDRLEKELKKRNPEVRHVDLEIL
UniProt P11166: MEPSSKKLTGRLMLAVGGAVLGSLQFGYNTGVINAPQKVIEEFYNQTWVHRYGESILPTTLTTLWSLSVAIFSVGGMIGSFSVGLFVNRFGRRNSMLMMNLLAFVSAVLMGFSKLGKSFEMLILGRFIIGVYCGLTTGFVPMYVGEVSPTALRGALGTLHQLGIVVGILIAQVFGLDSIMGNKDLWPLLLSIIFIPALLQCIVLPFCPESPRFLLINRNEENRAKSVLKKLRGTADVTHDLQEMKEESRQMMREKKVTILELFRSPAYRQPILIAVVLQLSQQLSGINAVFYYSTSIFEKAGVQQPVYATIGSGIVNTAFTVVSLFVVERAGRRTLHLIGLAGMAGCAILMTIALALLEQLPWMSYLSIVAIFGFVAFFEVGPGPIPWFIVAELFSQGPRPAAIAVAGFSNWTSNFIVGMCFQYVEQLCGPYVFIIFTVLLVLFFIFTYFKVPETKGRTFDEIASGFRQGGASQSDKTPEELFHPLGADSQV
UniProt Q9Y619: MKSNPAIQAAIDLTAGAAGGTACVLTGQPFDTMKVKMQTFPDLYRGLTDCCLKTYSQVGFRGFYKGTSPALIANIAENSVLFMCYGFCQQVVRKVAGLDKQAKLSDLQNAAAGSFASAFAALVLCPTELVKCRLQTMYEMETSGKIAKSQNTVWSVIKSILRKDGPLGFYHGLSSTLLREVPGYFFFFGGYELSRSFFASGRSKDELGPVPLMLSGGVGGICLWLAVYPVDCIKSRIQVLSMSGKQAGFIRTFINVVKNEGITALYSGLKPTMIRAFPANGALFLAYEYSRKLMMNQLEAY
UniProt Q86VD7: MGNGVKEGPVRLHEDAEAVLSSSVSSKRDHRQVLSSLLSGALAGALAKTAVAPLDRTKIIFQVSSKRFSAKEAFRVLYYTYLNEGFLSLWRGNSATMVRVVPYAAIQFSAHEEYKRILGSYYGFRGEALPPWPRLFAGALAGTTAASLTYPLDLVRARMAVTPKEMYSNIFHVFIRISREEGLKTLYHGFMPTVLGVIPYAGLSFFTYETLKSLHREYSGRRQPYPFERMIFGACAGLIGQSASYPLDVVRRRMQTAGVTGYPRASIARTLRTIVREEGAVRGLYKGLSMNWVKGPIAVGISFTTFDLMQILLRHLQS
UniProt Q6PCB7: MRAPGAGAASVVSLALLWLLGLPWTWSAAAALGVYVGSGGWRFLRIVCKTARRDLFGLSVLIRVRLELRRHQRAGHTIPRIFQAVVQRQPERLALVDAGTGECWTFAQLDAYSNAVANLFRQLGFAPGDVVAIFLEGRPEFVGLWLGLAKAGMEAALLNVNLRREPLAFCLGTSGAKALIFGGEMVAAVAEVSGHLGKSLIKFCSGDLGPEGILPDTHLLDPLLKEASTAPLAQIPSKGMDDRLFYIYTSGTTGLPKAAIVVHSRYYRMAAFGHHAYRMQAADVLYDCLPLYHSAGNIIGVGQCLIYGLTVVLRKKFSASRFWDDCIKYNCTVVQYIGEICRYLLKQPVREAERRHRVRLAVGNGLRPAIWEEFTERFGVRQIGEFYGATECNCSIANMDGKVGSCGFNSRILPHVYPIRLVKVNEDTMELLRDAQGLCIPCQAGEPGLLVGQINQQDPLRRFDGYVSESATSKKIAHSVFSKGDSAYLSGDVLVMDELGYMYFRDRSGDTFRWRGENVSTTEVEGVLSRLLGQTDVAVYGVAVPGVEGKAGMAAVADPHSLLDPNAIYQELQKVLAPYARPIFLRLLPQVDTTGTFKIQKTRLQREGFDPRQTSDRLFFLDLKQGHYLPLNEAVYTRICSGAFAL
UniProt Q8TAD4: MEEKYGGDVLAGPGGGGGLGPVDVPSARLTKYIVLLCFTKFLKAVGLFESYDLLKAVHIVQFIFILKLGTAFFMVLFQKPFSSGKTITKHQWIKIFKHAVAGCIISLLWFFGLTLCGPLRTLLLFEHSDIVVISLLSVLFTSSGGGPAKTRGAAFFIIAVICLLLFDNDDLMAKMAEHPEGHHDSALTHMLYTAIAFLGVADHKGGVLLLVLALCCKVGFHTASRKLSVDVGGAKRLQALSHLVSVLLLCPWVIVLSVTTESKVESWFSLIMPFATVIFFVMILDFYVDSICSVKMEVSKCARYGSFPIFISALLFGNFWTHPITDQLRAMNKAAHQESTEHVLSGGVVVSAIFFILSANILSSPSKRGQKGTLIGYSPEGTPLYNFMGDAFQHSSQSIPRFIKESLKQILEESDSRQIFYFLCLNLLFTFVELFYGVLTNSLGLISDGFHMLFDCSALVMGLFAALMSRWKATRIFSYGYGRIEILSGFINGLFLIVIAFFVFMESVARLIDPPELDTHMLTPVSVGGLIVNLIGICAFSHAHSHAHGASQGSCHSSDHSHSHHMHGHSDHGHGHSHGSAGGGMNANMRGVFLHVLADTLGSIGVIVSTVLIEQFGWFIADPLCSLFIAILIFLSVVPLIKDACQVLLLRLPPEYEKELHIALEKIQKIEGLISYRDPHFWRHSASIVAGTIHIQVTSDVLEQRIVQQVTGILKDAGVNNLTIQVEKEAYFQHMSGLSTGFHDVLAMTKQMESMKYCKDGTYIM
UniProt Q6XR72: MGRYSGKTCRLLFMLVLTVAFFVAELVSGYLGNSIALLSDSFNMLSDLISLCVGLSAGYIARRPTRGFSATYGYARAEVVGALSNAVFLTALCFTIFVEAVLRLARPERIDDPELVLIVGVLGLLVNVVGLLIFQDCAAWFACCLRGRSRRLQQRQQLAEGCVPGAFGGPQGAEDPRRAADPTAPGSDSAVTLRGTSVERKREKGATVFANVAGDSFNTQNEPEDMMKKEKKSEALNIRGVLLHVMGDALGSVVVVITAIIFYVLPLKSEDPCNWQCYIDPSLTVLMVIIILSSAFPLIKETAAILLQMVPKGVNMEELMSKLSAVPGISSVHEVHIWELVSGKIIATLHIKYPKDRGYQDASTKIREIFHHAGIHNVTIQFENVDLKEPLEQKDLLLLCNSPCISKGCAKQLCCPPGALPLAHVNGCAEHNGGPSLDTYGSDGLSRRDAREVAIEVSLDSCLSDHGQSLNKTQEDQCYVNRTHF
UniProt Q14542: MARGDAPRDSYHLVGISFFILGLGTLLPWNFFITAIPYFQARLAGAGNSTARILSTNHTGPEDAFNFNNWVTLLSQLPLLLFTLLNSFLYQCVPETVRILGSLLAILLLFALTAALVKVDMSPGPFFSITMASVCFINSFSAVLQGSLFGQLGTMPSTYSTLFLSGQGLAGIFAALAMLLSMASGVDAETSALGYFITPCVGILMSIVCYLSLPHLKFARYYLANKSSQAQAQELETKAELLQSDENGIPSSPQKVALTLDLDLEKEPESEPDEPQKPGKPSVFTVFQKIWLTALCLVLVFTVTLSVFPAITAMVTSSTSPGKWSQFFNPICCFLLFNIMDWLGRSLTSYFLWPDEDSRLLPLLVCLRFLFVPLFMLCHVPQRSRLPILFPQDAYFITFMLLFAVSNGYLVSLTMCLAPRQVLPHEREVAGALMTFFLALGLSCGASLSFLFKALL
UniProt Q02978: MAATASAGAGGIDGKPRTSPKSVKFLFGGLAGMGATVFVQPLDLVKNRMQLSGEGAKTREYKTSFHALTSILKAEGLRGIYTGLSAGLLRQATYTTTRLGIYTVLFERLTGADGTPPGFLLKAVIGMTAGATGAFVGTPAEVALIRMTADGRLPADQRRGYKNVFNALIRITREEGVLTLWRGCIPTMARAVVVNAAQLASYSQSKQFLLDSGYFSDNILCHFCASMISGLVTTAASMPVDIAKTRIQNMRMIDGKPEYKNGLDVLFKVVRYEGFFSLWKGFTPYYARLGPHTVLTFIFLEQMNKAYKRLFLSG
UniProt Q8WUM9: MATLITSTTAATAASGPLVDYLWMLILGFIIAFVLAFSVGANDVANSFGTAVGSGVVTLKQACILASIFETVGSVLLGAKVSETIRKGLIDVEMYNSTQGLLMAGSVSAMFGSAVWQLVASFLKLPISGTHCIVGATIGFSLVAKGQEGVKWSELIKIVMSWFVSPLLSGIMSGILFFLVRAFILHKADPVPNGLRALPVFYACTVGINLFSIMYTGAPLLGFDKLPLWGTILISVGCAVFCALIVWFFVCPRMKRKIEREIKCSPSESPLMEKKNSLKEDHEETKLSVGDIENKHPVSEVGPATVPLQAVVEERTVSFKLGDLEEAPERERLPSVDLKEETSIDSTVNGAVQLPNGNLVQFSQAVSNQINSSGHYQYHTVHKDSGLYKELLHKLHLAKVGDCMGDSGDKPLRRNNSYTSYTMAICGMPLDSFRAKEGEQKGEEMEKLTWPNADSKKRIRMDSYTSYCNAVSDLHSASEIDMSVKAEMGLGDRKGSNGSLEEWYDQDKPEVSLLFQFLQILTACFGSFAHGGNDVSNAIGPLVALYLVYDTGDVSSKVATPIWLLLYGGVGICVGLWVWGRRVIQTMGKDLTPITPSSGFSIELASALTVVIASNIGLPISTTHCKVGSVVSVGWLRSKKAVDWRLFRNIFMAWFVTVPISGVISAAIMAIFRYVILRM

Tests used:
Assay in all cases: log2 fold change, soluble protein after heating vs DMSO (PISA); higher = thermal stabilisation; K562 cells, 10 uM, 30 min; active = over 0.2 and 3.5 SD of the protein, either way, in both replicates (recomputed)
[1] = compound: CC1=C(C=C(C=C1)NC(=O)C2=CC(=CC=C2)C(C)(C)C#N)NC3=CC4=C(C=C3)N=CN(C4=O)C
Outline: (§1)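 K562 cells at 2×10^6 cells/mL were treated for 30 min with 10 μM compound, and aliquots were heated for 3 min over 48°C-58°C before pooling. Extraction used PBS with 0.5% NP-40 at 4°C, and soluble protein was the supernatant after 21,000xg for 90 min, measured by TMTpro 16plex LC-MS/MS with channel sums equalised. Thermal stability values, relative to control samples and from duplicates, are log2 fold changes.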

[2] = compound: CC1=C(C=C(C=C1)NC(=O)C2=CC(=CC=C2)N(C)C)NC(=O)C3=CC=C(C=C3)O
Outline: as §1

[3] = compound: CC1=CC=C(C=C1)SC2=C3C=C(SC3=CN=C2)C(=O)N
Outline: as §1

[4] = compound: CC1=NC(=CC=C1)C2=C(N=C(N2)C(C)(C)C)C3=CC4=NC=CN=C4C=C3
Outline: as §1

Nexturastat A = compound: CCCCN(Cc1ccc(C(=O)NO)cc1)C(=O)Nc1ccccc1 [Nexturastat A]
Outline: as §1

vemurafenib = compound: CCCS(=O)(=O)Nc1ccc(F)c(C(=O)c2c[nH]c3ncc(-c4ccc(Cl)cc4)cc23)c1F [vemurafenib]
Outline: as §1

[5] = compound: CCCS(=O)(=O)Nc1ccc(F)c(C(=O)c2c[nH]c3ncc(Cl)cc23)c1F
Outline: as §1

[6] = compound: CCCc1cc(C)[nH]c(=O)c1CNC(=O)c1cc(-c2ccnc(N3CCN(C)CC3)c2)cc2c1cnn2C(C)C
Outline: as §1

givinostat = compound: CCN(CC)Cc1ccc2cc(COC(=O)Nc3ccc(C(=O)NO)cc3)ccc2c1 [givinostat]
Outline: as §1

barasertib = compound: CCN(CCCOc1ccc2c(Nc3cc(CC(=O)Nc4cccc(F)c4)[nH]n3)ncnc2c1)CCOP(=O)(O)O [barasertib]
Outline: as §1

| Target | log2 fold change [1] | log2 fold change [2] | log2 fold change [3] | log2 fold change [4] | log2 fold change (Nexturastat A) | log2 fold change (vemurafenib) | log2 fold change [5] | log2 fold change [6] | log2 fold change (givinostat) | log2 fold change (barasertib) |
| --- | --- | --- | --- | --- | --- | --- | --- | --- | --- | --- |
| SLC25A10 isoform 2 (UniProt Q9UBX3) | inactive: 0.021 | inactive: 0.044 | inactive: 0.007 | inactive: 0.044 | inactive: -0.006 | inactive: -0.015 | inactive: 0.005 | inactive: -0.041 | inactive: 0.022 | inactive: -0.022 |
| SLC5A6 (UniProt Q9Y289) | inactive: -0.002 | inactive: -0.015 | inactive: 0.295 | inactive: 0.035 | inactive: 0.012 | inactive: 0.004 | inactive: -0.037 | inactive: -0.02 | inactive: 0.019 | inactive: -0.035 |
| SLC35F2 (UniProt Q8IXU6) | inactive: -0.089 | inactive: -0.046 | inactive: -0.042 | inactive: -0.093 | inactive: -0.032 | inactive: -0.003 | inactive: -0.024 | inactive: -0.077 | inactive: 0 | inactive: -0.064 |
| SLC25A3 isoform 2 (UniProt Q00325) | inactive: 0.016 | inactive: 0.004 | inactive: -0.007 | inactive: -0.015 | inactive: -0.041 | inactive: 0.019 | inactive: -0.033 | inactive: -0.027 | inactive: -0.012 | inactive: -0.029 |
| SLC27A2 (UniProt O14975) | inactive: 0.099 | inactive: -0.042 | inactive: -0.032 | inactive: -0.032 | inactive: -0.013 | inactive: 0.029 | inactive: 0.073 | inactive: 0.008 | inactive: -0.004 | inactive: 0 |
| SLC25A32 (UniProt Q9H2D1) | inactive: 0.025 | inactive: 0.038 | inactive: 0.013 | inactive: -0.011 | inactive: 0.032 | inactive: -0.029 | inactive: -0.017 | inactive: -0.09 | inactive: 0.013 | inactive: -0.017 |
| SLC25A33 (UniProt Q9BSK2) | inactive: 0.039 | inactive: -0.024 | inactive: 0.059 | inactive: 0.013 | inactive: -0.116 | inactive: -0.006 | inactive: 0.007 | inactive: -0.058 | inactive: 0.042 | inactive: -0.023 |
| SLC38A7 (UniProt Q9NVC3) | inactive: 0.092 | inactive: 0.009 | inactive: 0 | inactive: 0.094 | inactive: -0.04 | inactive: 0.042 | inactive: 0.012 | inactive: -0.002 | inactive: 0.008 | inactive: -0.012 |
| SLC39A10 (UniProt Q9ULF5) | inactive: -0.009 | inactive: 0.012 | inactive: -0.046 | inactive: -0.033 | inactive: -0.007 | inactive: 0.019 | inactive: -0.047 | inactive: 0.012 | inactive: -0.027 | inactive: 0.007 |
| SLC29A1 isoform 2 (UniProt Q99808) | inactive: -0.018 | inactive: -0.034 | inactive: 0.026 | inactive: 0.013 | inactive: -0.035 | inactive: -0.007 | inactive: 0.015 | inactive: -0.002 | inactive: -0.059 | inactive: -0.041 |
| SLC25A40 (UniProt Q8TBP6) | inactive: -0.029 | inactive: 0.032 | inactive: -0.032 | inactive: 0.033 | inactive: 0.088 | inactive: 0.017 | inactive: -0.06 | inactive: 0.033 | inactive: -0.002 | inactive: -0.014 |
| SLC30A9 (UniProt Q6PML9) | inactive: -0.084 | inactive: 0.038 | inactive: 0.01 | inactive: 0.034 | inactive: -0.015 | inactive: 0.06 | inactive: -0.018 | inactive: -0.151 | inactive: 0.049 | inactive: -0.014 |
| SLC2A1 (UniProt P11166) | inactive: -0.008 | inactive: 0.017 | inactive: 0.02 | inactive: -0.017 | inactive: -0.125 | inactive: 0.016 | inactive: -0.033 | inactive: 0.002 | inactive: -0.007 | inactive: -0.022 |
| SLC25A15 (UniProt Q9Y619) | inactive: -0.041 | inactive: 0.069 | inactive: 0.009 | inactive: -0.006 | inactive: -0.056 | inactive: 0.014 | inactive: -0.025 | inactive: -0.06 | inactive: -0.013 | inactive: 0.013 |
| SLC38A2 (UniProt Q96QD8) | inactive: 0.118 | inactive: 0.026 | inactive: 0.067 | inactive: 0.062 | inactive: -0.133 | inactive: 0.032 | inactive: 0.096 | inactive: -0.107 | inactive: -0.014 | inactive: -0.039 |
| SLC25A42 (UniProt Q86VD7) | inactive: -0.007 | inactive: 0.041 | inactive: 0.038 | inactive: -0.049 | inactive: -0.021 | inactive: -0.015 | inactive: 0.089 | inactive: -0.054 | inactive: -0.006 | inactive: 0.001 |
| SLC27A1 (UniProt Q6PCB7) | inactive: -0.186 | inactive: 0.036 | inactive: -0.046 | inactive: 0.12 | inactive: -0.061 | inactive: -0.109 | inactive: -0.008 | inactive: -0.01 | inactive: 0.049 | inactive: 0.043 |
| SLC20A2 (UniProt Q08357) | inactive: -0.048 | inactive: -0.054 | inactive: -0.034 | inactive: -0.03 | inactive: -0.076 | inactive: -0.086 | inactive: -0.007 | inactive: -0.056 | inactive: 0.042 | inactive: -0.025 |
| SLC30A5 (UniProt Q8TAD4) | inactive: 0.077 | inactive: 0.067 | inactive: 0.025 | inactive: 0.006 | inactive: -0.077 | inactive: 0.029 | inactive: 0.071 | inactive: -0.12 | inactive: -0.007 | inactive: 0.038 |
| SLC30A10 (UniProt Q6XR72) | inactive: 0.028 | inactive: -0.102 | inactive: 0.131 | inactive: 0.001 | active: -0.545 | inactive: -0.031 | inactive: -0.073 | inactive: -0.086 | inactive: -0.002 | inactive: -0.025 |
| SLC4A7 isoform 7 (UniProt Q9Y6M7) | inactive: -0.058 | inactive: -0.049 | inactive: 0.014 | inactive: -0.053 | inactive: -0.111 | inactive: -0.119 | inactive: -0.078 | inactive: 0.001 | inactive: 0.027 | inactive: 0.032 |
| SLC29A2 (UniProt Q14542) | inactive: 0.032 | inactive: -0.062 | inactive: -0.045 | inactive: 0.011 | inactive: -0.045 | inactive: -0.013 | inactive: -0.084 | inactive: -0.064 | inactive: -0.044 | inactive: 0.037 |
| SLC18B1 (UniProt Q6NT16) | inactive: -0.016 | inactive: -0.194 | inactive: -0.07 | inactive: -0.111 | inactive: 0.034 | inactive: 0.069 | inactive: 0.005 | inactive: -0.044 | inactive: -0.02 | inactive: 0.084 |
| SLC25A24 (UniProt Q6NUK1) | inactive: -0.043 | inactive: -0.006 | inactive: 0.016 | inactive: 0.013 | inactive: -0.051 | inactive: -0.031 | inactive: -0.03 | inactive: -0.029 | inactive: -0.005 | inactive: -0.012 |
| SLC2A3 (UniProt P11169) | inactive: 0.062 | inactive: 0.009 | inactive: 0.025 | inactive: -0.016 | inactive: -0.066 | inactive: 0 | inactive: -0.013 | inactive: -0.024 | inactive: -0.028 | inactive: -0.006 |
| SLC25A5 (UniProt P05141) | inactive: 0.023 | inactive: -0.004 | inactive: -0.007 | inactive: -0.011 | inactive: -0.077 | inactive: -0.026 | inactive: -0.128 | inactive: 0.007 | inactive: -0.022 | inactive: 0 |
| SLC25A11 (UniProt Q02978) | inactive: 0.011 | inactive: 0.014 | inactive: 0.004 | inactive: -0.014 | inactive: -0.023 | inactive: -0.016 | inactive: 0.044 | inactive: -0.055 | inactive: -0.015 | inactive: 0.004 |
| SLC39A14 (UniProt Q15043) | inactive: -0.015 | inactive: 0.065 | inactive: 0.019 | inactive: -0.008 | inactive: -0.003 | inactive: -0.022 | inactive: -0.038 | inactive: -0.033 | inactive: 0.021 | inactive: 0.009 |
| SLC20A1 (UniProt Q8WUM9) | inactive: -0.052 | inactive: -0.009 | inactive: -0.004 | inactive: -0.092 | inactive: -0.022 | inactive: -0.079 | inactive: -0.053 | inactive: -0.087 | inactive: -0.015 | inactive: 0.001 |

Complete entries from above. Order of values: log2 fold change [1]	log2 fold change [2]	log2 fold change [3]	log2 fold change [4]	log2 fold change (Nexturastat A)	log2 fold change (vemurafenib)	log2 fold change [5]	log2 fold change [6]	log2 fold change (givinostat)	log2 fold change (barasertib)
SLC25A24 (UniProt Q6NUK1) is listed as inactive: -0.043	inactive: -0.006	inactive: 0.016	inactive: 0.013	inactive: -0.051	inactive: -0.031	inactive: -0.03	inactive: -0.029	inactive: -0.005	inactive: -0.012
SLC39A10 (UniProt Q9ULF5) is listed as inactive: -0.009	inactive: 0.012	inactive: -0.046	inactive: -0.033	inactive: -0.007	inactive: 0.019	inactive: -0.047	inactive: 0.012	inactive: -0.027	inactive: 0.007
